Experimental data: patent publication US20250025478A1
These are yes or no findings as the source states them, for the method shown. In cells and extracts the contact can be indirect. Some binding calls cover weakened binding; strength is not graded here. Tags and fused reporters may be left off the sequences shown.

Sequences of proteins named here, by UniProt entry; tags and fusion partners are left off. A change or cut given only in a name is not applied to a line headed by its entry.
UniProt Q63HN8: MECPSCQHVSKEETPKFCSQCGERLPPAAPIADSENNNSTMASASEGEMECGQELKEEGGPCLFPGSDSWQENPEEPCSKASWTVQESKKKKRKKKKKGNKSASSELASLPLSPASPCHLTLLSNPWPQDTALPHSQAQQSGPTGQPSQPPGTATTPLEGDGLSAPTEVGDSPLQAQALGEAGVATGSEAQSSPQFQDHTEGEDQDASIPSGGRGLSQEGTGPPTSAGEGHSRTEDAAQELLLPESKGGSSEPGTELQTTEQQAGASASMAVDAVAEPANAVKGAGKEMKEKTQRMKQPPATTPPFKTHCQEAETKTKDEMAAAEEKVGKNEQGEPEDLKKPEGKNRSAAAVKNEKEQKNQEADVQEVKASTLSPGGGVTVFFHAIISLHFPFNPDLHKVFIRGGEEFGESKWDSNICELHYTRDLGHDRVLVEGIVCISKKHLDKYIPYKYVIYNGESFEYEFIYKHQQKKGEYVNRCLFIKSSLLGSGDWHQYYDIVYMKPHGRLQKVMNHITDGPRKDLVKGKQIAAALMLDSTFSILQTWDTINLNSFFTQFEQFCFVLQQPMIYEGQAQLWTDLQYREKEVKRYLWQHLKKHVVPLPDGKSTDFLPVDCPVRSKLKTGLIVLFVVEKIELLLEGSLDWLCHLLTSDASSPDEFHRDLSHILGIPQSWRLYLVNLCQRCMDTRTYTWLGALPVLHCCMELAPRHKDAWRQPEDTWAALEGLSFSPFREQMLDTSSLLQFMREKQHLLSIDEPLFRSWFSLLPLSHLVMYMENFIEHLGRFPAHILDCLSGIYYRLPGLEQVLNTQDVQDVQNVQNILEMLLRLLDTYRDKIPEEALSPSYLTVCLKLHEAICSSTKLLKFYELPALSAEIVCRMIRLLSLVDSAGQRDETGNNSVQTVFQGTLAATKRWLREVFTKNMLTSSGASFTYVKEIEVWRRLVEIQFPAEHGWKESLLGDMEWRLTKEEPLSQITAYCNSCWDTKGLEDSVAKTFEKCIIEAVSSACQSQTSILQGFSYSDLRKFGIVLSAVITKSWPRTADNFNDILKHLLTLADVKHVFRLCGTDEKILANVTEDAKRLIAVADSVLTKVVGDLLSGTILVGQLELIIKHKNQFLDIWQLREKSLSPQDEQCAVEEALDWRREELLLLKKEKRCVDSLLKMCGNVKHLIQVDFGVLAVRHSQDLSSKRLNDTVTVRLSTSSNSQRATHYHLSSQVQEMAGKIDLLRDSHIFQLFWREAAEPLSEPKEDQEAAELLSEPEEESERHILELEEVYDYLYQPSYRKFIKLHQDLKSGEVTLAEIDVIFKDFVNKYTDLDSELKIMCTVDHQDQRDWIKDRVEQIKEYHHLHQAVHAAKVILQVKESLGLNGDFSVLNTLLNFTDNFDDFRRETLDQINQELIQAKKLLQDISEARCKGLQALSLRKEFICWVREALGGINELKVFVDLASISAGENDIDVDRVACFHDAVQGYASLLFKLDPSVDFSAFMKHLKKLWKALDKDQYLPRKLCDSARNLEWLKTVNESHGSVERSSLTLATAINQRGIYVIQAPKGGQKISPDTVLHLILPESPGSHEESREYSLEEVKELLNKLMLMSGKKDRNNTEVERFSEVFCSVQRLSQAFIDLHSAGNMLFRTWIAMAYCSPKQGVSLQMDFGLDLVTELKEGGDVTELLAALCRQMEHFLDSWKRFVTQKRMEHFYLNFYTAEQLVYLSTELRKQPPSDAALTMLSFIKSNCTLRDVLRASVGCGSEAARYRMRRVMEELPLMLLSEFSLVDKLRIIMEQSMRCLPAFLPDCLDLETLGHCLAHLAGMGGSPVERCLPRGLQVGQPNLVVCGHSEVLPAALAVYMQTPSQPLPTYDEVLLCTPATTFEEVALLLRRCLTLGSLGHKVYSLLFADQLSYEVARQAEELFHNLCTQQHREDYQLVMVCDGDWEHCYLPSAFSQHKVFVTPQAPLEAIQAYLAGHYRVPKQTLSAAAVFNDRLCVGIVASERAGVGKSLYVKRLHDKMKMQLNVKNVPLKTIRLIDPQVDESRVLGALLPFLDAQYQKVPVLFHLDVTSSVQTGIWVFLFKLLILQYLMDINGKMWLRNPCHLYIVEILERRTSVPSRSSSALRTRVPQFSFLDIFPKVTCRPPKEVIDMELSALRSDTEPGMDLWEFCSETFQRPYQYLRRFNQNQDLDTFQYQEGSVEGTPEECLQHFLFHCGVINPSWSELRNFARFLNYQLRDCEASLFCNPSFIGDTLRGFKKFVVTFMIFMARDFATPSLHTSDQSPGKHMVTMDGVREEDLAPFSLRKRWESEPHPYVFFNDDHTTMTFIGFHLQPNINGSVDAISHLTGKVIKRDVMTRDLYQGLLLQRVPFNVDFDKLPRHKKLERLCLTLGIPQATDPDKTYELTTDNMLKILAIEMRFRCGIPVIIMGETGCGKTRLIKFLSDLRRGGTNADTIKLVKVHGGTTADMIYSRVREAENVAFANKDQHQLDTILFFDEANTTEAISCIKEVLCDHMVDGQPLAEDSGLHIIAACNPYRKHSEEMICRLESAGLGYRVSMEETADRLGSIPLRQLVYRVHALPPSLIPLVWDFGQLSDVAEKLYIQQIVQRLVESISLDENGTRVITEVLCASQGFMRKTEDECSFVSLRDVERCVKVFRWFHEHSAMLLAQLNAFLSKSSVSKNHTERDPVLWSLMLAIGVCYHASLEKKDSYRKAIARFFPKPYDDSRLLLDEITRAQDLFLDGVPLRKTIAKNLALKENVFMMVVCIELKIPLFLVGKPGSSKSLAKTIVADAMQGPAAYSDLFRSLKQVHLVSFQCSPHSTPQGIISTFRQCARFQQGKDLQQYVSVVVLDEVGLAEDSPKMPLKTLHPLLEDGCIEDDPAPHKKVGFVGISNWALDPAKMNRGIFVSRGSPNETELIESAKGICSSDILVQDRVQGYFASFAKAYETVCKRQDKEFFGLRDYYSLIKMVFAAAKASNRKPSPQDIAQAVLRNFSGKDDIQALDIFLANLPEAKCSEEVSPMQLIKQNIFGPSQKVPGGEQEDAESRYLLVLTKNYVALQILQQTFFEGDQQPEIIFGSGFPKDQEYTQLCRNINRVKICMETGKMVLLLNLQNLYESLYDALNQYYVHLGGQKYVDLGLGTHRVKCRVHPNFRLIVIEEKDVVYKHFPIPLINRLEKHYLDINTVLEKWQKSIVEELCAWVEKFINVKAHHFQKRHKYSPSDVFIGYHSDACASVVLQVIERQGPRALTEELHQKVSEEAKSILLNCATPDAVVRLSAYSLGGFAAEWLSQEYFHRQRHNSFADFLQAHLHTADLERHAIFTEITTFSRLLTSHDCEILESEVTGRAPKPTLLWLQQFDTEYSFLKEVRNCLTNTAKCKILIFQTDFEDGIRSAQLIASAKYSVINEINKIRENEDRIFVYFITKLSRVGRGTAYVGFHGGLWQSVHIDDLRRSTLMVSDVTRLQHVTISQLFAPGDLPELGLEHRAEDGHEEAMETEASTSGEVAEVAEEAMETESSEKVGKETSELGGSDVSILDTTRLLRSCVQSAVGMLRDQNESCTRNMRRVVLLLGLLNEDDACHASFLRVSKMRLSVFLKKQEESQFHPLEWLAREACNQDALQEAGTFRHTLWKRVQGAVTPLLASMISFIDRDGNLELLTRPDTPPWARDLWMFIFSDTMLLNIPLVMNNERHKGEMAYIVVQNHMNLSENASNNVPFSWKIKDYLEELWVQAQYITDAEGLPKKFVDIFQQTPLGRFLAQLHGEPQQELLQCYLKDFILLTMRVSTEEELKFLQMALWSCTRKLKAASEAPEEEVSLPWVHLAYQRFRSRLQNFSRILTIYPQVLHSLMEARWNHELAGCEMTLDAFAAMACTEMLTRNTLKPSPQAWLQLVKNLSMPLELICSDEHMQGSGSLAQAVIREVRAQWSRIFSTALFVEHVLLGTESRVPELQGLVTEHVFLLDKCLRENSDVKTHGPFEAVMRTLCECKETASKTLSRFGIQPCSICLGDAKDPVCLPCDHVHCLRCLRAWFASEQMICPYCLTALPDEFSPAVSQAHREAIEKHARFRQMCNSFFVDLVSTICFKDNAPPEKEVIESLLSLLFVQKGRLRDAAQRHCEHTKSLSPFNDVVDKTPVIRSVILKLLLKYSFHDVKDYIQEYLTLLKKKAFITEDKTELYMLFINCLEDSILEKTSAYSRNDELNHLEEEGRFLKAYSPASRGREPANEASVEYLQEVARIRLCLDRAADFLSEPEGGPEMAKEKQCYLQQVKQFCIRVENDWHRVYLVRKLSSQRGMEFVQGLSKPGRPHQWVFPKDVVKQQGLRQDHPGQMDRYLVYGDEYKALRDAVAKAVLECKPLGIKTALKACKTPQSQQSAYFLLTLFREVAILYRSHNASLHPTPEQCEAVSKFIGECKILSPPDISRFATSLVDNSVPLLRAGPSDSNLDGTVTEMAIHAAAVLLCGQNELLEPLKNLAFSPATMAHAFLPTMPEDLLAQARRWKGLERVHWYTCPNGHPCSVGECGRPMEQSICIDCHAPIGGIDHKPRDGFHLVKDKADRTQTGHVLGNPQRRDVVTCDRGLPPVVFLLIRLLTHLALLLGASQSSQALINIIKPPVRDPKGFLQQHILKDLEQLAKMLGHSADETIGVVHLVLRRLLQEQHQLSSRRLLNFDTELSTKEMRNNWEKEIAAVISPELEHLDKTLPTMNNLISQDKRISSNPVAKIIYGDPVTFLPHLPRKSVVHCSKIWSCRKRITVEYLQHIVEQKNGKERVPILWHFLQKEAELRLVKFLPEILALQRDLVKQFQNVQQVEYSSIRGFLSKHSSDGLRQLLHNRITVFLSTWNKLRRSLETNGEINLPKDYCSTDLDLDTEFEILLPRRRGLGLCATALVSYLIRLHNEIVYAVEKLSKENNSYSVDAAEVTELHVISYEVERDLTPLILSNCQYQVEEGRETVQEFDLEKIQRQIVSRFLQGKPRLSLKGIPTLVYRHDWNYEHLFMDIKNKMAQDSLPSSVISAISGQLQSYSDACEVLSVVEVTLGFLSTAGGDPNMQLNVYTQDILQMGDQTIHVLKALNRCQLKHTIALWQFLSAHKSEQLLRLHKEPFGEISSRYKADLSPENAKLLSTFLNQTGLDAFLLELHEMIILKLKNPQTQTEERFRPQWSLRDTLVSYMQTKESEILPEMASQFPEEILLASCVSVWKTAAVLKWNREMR

How the values were obtained:
[1] = molecular target: 3×-FLAG-RNF213 (Homo sapiens (Human)) (UniProt Q63HN8); assay: anti-HA co-immunoprecipitation/immunoblot with dasatinib or DMSO, AU565 RNF213-KO-PTPN1-KD cells (FIG. 8B)
[2] = molecular target: 3×-FLAG-RNF213 (Homo sapiens (Human)) (UniProt Q63HN8); assay: anti-HA co-immunoprecipitation/immunoblot, BT474 RNF213-KO-PTPN1-KD cells (FIG. 1A, 1E)
[3] = molecular target: 3×-FLAG-RNF213 (Homo sapiens (Human)) (UniProt Q63HN8); assay: anti-HA co-immunoprecipitation/immunoblot, AU565 RNF213-KO-PTPN1-KD cells (FIG. 7C)
[4] = molecular target: 3×-FLAG-RNF213 (Homo sapiens (Human)) (UniProt Q63HN8); assay: anti-HA co-immunoprecipitation/immunoblot, BT474 RNF213-KO-PTPN1-KD cells (FIG. 1A); similar in AU565-derived cells (FIG. 7C)
[5] = molecular target: 3×-FLAG-RNF213 (Homo sapiens (Human)) (UniProt Q63HN8); assay: anti-HA co-immunoprecipitation/immunoblot with dasatinib or DMSO (FIG. 1E, FIG. 8B)

Measured: binding

B1: HA-PTP1B^D/A (hemagglutinin-tagged mouse PTP1B substrate-trapping mutant D181A) (enzyme, UniProt P35821 1-432, looked up, not shown: small tags and cut ends)
chain: MEMEKEFEEIDKAGNWAAIYQDIRHEASDFPCKVAKLPKNKNRNRYRDVSPFDHSRIKLHQEDNDYINASLIKMEEAQRSYILTQGPLPNTCGHFWEMVWEQKSRGVVMLNRIMEKGSLKCAQYWPQQEEKEMVFDDTGLKLTLISEDVKSYYTVRQLELENLTTKETREILHFHYTTWPAFGVPESPASFLNFLFKVRESGSLSLEHGPIVVHCSAGIGRSGTFCLADTCLLLMDKRKDPSSVDIKKVLLEMRRFRMGLIQTADQLRFSYLAVIEGAKFIMGDSSVQDQWKELSREDLDLPPEHVPPPPRPPKRTLEPHNGKCKELFSSHQWVSEETCGDEDSLAREEGRAQSSAMHSVSSMSPDTEVRRRMVGGGLQSAQASVPTEEELSSTEEEHKAHWPSHWKPFLVNVCMATLLATGAYLCYRVCFH
binds: [1] | [2] | [3] | [4] | [5]
